From the supplement of paper PMC10849652
The other results are listed elsewhere or left out.

Amino acid sequences for entries named in this document (tags omitted). A change or cut given only in a name is not applied to a line headed by its entry.
UniProt O43236: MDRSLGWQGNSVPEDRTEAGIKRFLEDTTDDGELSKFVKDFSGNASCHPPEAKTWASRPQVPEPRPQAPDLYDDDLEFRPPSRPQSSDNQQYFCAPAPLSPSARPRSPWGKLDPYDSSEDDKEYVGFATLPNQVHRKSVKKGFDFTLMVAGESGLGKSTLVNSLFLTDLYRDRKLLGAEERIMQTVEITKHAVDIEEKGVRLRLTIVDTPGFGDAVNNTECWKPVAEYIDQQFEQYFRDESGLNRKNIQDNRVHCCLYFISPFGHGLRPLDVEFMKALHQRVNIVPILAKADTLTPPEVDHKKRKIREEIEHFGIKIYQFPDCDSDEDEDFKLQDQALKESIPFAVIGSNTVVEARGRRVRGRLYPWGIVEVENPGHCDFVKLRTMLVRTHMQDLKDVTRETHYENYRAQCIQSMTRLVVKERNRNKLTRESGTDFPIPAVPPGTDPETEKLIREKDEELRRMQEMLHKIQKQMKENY
UniProt Q15427: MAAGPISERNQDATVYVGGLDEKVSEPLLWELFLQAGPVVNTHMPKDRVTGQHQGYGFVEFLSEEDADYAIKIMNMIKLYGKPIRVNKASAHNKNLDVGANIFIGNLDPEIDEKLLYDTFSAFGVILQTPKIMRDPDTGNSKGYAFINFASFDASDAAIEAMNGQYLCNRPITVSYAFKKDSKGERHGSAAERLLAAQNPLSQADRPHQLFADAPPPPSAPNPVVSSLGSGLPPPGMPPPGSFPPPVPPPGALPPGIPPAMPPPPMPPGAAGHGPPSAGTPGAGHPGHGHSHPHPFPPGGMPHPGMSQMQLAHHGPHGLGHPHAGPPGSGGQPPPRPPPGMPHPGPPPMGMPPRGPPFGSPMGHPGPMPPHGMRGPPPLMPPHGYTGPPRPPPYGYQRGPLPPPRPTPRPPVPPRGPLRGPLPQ
UniProt P62341, whole entry, looked up: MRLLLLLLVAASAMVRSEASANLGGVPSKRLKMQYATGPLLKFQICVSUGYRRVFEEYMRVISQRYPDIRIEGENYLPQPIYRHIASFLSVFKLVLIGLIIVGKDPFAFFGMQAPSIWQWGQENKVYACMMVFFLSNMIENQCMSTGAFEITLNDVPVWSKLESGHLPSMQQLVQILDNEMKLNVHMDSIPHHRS
UniProt Q15428: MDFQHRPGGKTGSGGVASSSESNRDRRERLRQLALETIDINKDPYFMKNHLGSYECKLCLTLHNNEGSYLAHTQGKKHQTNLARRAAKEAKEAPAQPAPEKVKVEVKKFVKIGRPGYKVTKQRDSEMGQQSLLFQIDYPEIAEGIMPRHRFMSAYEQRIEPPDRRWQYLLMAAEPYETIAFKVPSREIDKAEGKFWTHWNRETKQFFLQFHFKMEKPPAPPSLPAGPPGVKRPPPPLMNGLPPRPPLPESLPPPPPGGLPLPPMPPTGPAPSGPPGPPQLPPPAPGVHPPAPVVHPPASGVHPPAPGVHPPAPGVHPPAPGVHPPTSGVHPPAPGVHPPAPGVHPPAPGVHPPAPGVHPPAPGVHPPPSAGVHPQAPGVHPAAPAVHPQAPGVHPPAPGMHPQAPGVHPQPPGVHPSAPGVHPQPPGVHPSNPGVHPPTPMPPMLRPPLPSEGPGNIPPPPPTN
UniProt O43765: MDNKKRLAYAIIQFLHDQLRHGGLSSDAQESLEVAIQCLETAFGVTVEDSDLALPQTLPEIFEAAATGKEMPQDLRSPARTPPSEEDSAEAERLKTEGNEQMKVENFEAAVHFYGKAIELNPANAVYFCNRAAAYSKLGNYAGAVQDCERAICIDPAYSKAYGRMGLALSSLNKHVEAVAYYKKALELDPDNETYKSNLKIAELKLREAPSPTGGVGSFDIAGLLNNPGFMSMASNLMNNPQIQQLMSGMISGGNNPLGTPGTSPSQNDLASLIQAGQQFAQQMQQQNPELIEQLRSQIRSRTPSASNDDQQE
UniProt Q96BD8: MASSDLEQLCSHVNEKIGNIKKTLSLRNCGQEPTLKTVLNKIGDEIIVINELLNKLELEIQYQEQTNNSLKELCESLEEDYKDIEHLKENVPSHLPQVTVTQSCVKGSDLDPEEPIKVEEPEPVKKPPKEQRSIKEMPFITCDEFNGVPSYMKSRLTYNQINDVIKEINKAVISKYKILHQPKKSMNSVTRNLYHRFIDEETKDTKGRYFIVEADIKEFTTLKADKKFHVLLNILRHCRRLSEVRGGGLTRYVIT
UniProt Q9H9B4: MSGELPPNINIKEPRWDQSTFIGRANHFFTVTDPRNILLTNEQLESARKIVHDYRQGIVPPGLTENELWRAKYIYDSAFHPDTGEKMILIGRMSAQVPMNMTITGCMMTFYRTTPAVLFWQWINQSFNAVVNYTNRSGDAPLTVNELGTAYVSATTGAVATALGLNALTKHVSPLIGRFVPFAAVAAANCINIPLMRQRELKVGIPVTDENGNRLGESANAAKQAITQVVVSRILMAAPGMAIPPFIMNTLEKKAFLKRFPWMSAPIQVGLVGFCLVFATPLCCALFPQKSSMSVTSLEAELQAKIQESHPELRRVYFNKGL
UniProt Q7L8J4: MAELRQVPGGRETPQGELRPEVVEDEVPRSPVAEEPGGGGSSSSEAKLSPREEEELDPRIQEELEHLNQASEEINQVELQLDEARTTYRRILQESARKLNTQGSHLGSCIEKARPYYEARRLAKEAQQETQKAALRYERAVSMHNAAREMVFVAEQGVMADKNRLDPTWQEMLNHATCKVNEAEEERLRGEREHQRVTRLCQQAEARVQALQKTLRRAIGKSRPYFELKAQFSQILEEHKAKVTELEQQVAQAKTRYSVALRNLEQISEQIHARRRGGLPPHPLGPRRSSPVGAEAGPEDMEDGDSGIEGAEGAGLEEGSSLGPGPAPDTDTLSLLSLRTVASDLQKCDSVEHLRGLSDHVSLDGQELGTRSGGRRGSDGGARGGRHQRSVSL
UniProt P08697: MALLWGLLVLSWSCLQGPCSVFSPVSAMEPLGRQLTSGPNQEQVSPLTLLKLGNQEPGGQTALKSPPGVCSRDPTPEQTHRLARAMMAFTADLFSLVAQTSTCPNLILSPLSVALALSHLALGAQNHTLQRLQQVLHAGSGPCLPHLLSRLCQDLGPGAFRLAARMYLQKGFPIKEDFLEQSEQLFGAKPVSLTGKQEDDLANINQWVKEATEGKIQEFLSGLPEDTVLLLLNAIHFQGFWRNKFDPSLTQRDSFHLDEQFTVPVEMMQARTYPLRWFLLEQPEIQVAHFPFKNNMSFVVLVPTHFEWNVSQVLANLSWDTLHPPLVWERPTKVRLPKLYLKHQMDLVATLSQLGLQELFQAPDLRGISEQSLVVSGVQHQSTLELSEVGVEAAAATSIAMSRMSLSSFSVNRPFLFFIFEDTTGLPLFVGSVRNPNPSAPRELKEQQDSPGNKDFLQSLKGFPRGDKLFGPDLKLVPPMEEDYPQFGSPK
UniProt Q99574: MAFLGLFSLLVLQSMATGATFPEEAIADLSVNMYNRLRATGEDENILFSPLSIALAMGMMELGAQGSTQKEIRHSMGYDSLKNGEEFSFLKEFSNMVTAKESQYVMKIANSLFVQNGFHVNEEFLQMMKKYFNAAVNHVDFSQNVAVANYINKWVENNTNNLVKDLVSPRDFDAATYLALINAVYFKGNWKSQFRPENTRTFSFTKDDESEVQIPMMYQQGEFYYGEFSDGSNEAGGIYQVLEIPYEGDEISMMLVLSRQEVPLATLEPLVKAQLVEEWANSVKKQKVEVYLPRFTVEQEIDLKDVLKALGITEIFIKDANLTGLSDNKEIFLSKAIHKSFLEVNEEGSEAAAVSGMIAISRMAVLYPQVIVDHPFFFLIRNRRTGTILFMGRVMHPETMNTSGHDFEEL
UniProt P84101: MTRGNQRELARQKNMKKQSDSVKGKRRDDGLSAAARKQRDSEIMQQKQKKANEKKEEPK
UniProt Q96ES7: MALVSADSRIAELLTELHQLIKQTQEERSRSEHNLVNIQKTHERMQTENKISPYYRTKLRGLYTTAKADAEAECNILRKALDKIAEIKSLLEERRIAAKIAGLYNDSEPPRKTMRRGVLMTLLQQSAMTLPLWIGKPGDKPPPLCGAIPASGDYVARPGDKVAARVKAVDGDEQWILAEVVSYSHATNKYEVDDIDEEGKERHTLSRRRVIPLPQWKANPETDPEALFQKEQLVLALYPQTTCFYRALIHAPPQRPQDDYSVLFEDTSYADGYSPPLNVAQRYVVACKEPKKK
UniProt P34897: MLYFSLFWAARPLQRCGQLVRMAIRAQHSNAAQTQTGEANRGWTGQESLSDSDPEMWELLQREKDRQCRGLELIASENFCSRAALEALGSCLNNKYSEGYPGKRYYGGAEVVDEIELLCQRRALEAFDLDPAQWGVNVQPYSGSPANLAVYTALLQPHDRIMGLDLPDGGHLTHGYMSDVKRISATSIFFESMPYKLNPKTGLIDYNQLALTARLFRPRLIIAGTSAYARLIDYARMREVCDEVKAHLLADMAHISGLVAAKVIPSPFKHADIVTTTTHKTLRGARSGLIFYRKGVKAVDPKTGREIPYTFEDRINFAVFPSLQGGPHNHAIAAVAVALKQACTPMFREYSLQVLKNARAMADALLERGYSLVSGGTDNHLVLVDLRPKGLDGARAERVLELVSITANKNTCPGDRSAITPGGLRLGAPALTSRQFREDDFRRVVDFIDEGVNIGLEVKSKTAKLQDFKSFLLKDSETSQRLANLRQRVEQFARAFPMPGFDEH
UniProt Q02383: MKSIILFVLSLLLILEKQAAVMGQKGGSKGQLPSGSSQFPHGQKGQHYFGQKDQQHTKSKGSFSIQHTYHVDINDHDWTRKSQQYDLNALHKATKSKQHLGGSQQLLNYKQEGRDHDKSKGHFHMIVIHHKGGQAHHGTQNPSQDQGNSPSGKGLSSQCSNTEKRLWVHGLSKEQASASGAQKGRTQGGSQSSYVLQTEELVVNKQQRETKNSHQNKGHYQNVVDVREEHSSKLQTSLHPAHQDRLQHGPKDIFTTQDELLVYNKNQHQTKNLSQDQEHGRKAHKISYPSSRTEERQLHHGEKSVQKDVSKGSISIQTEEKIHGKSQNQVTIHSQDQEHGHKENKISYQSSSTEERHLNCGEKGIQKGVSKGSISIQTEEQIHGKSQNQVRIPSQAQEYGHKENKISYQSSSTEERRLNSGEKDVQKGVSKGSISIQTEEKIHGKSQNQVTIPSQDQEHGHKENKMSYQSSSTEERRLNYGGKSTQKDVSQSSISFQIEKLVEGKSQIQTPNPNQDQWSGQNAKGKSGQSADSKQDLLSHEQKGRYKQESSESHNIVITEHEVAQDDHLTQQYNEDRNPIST
UniProt Q8WV19: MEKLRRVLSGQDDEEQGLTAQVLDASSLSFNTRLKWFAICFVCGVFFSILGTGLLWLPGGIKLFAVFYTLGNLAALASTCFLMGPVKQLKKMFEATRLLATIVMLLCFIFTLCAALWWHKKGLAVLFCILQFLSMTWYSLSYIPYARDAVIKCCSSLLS
UniProt Q9UGP8: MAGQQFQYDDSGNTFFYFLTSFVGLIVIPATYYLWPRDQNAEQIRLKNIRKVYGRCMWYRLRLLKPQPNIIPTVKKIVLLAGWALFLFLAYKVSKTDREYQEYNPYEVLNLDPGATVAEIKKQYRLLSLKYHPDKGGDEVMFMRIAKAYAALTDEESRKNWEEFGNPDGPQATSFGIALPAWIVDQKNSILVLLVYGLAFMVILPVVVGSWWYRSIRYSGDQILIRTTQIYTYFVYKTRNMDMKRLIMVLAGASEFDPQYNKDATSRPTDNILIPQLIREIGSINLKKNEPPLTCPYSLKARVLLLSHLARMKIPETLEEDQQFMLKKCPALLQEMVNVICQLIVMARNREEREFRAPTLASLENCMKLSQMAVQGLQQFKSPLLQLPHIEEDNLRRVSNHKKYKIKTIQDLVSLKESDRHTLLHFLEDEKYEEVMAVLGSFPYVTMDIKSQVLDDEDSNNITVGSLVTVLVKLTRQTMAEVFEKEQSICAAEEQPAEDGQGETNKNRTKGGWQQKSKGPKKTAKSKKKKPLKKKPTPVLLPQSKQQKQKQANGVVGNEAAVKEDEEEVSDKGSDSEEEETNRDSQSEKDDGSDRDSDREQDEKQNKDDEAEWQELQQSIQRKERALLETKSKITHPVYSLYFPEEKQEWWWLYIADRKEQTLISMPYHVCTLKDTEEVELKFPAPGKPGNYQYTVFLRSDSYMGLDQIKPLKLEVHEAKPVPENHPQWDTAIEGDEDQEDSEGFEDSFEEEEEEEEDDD
UniProt Q15019: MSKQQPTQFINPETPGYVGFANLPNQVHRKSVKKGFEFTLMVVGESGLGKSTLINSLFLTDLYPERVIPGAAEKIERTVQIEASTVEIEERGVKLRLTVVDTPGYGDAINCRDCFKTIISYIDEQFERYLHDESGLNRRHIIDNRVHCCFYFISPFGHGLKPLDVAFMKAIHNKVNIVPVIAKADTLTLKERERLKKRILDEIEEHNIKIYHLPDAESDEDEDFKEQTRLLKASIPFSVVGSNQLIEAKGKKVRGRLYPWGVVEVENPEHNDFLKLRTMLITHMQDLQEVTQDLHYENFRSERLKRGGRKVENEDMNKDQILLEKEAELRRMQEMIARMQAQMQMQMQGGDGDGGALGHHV

Legend:
Experiment in all cases: log2 fold change, soluble protein after heating vs DMSO (PISA); higher = thermal stabilisation; K562 cells, 10 uM, 30 min; active = over 0.2 and 3.5 SD of the protein, either way, in both replicates (recomputed)
[1] = compound: NC(=O)Nc1cc(-c2cccc(F)c2)sc1C(=O)N[C@H]1CCCNC1
Procedure, shortened: (§1)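 K562 cells (2×10^6 cells/mL) were treated with 10 μM compound for 30 min, and aliquots were heated for 3 min over 48°C-58°C. Pooled aliquots were extracted in PBS with 0.5% NP-40 at 4°C, and the supernatant after 21,000xg for 90 min was measured by TMTpro 16plex LC-MS/MS with channel sums equalised. Reported thermal stability, relative to control samples and from duplicates, is a log2 fold change.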

[2] = compound: NC(=O)c1cnc(N[C@@H]2CCCC[C@@H]2N)nc1Nc1cccc(-n2nccn2)c1
Procedure, shortened: as §1

[3] = compound: NC1(c2ccc(-c3nc4ccn5c(=O)[nH]nc5c4cc3-c3ccccc3)cc2)CCC1
Procedure, shortened: as §1

[4] = compound: NCC(=O)Nc1ccc(-n2nc(C(F)(F)F)cc2-c2ccc3c(ccc4ccccc43)c2)cc1
Procedure, shortened: as §1

entinostat = compound: Nc1ccccc1NC(=O)c1ccc(CNC(=O)OCc2cccnc2)cc1 [entinostat]
Procedure, shortened: as §1

vorinostat = compound: O=C(CCCCCCC(=O)Nc1ccccc1)NO [vorinostat]
Procedure, shortened: as §1

citarinostat = compound: O=C(CCCCCCNC(=O)c1cnc(N(c2ccccc2)c2ccccc2Cl)nc1)NO [citarinostat]
Procedure, shortened: as §1

silmitasertib = compound: O=C(O)c1ccc2c(c1)nc(Nc1cccc(Cl)c1)c1ccncc12 [silmitasertib]
Procedure, shortened: as §1

[5] = compound: O=C1NC(=O)C(c2cnc3ccccn23)=C1c1cn2c3c(cc(F)cc13)CN(C(=O)N1CCCCC1)CC2
Procedure, shortened: as §1

[6] = compound: c1cc(OCCN2CCCCC2)cc(-c2n[nH]c3ccc(-c4nnc[nH]4)cc23)c1
Procedure, shortened: as §1

entospletinib = compound: c1cn2cc(-c3ccc4cn[nH]c4c3)nc(Nc3ccc(N4CCOCC4)cc3)c2n1 [entospletinib]
Procedure, shortened: as §1

Measured: log2 fold change

SLAIN2 (UniProt Q9P270)
inactive: [1] 0.127 | [2] -0.018 | [3] 0.05 | [4] 0.018 | entinostat -0.03 | vorinostat 0.032 | citarinostat 0.019 | silmitasertib 0.016 | [5] 0 | [6] -0.066 | entospletinib -0.021

SEPTIN4 isoform 4 (UniProt O43236)
inactive: [1] 0.321 | [2] 0.193 | [3] -0.035 | [4] 0.204 | entinostat 0.182 | vorinostat -0.011 | citarinostat 0.312 | silmitasertib 0.001 | [5] 0.283 | [6] -0.028 | entospletinib -0.217

SF3B4 (UniProt Q15427)
inactive: [1] -0.035 | [2] -0.068 | [3] 0.088 | [4] 0.002 | entinostat -0.029 | vorinostat 0.097 | citarinostat 0.031 | silmitasertib 0.098 | [5] 0.247 | [6] -0.188 | entospletinib -0.09

SELENOT (UniProt P62341)
inactive: [1] 0.077 | [2] 0.011 | [3] -0.141 | [4] -0.036 | entinostat 0.041 | vorinostat 0.113 | citarinostat -0.117 | silmitasertib -0.007 | [5] 0.04 | [6] -0.186 | entospletinib -0.01

SF3A2 (UniProt Q15428)
inactive: [1] -0.051 | [2] -0.074 | [3] 0.05 | [4] -0.128 | entinostat -0.02 | vorinostat -0.01 | citarinostat 0.031 | silmitasertib 0.072 | [5] -0.025 | [6] -0.107 | entospletinib -0.078

SGTA (UniProt O43765)
inactive: [1] 0.008 | [2] 0.01 | [3] -0.073 | [4] -0.056 | entinostat 0.017 | vorinostat -0.008 | citarinostat 0.048 | silmitasertib 0.014 | [5] -0.077 | [6] 0.022 | entospletinib 0

SKA1 (UniProt Q96BD8)
inactive: [1] 0.126 | [3] 0.083 | [4] -0.074 | entinostat 0.101 | vorinostat 0.111 | citarinostat 0.051 | silmitasertib 0.115 | [5] 0.239 | [6] -0.199 | entospletinib 0.259

SFXN1 (UniProt Q9H9B4)
inactive: [1] 0.053 | [2] -0.033 | [3] -0.013 | [4] -0.016 | entinostat 0.077 | vorinostat 0.036 | citarinostat 0.067 | silmitasertib -0.027 | [5] -0.025 | [6] 0.014 | entospletinib -0.027

SHFL (UniProt Q9NUL5)
inactive: [1] -0.019 | [2] 0.357 | [3] 0.309 | entinostat -0.023 | vorinostat -0.055 | silmitasertib 0.084 | [5] 0.194

SH3BP5L (UniProt Q7L8J4)
inactive: [1] -0.141 | [2] -0.11 | [3] -0.084 | [4] -0.065 | entinostat 0.057 | vorinostat -0.021 | citarinostat 0.054 | silmitasertib 0.053 | [5] -0.034 | [6] -0.077 | entospletinib -0.025

SERPINF2 (UniProt P08697)
inactive: [1] -0.205 | [2] 0.029 | [3] 0.059 | [4] 0.061 | entinostat 0.017 | vorinostat 0.323 | citarinostat 0.128 | silmitasertib 0.165 | [5] 0.065 | [6] 0.429 | entospletinib 0.173

SERPINI1 (UniProt Q99574)
inactive: [1] 0.044 | [2] -0.026 | [3] 0 | [4] 0.17 | entinostat -0.047 | vorinostat -0.131 | citarinostat 0.022 | silmitasertib 0.036 | [5] -0.09 | [6] -0.146 | entospletinib -0.196

SERF2 (UniProt P84101)
inactive: [1] -0.051 | [3] 0.067 | [4] -0.025 | entinostat -0.026 | vorinostat 0.251 | citarinostat -0.135 | silmitasertib 0.03 | [5] -0.026 | [6] 0.021 | entospletinib 0.07

SIL1 (UniProt Q9H173)
inactive: [1] 0.021 | [2] 0.007 | [3] -0.02 | [4] 0.007 | entinostat -0.006 | vorinostat -0.022 | citarinostat 0.024 | silmitasertib 0.089 | [5] -0.042 | [6] -0.053 | entospletinib -0.015

SIPA1 (UniProt Q96FS4)
inactive: [1] 0.027 | [2] 0.015 | [3] -0.003 | [4] -0.003 | entinostat 0.022 | vorinostat 0.022 | citarinostat -0.013 | silmitasertib -0.012 | [5] -0.003 | [6] 0.017 | entospletinib 0.033

SGF29 (UniProt Q96ES7)
inactive: [1] 0.014 | [2] -0.043 | [3] -0.029 | [4] -0.095 | entinostat 0.005 | vorinostat 0.039 | citarinostat -0.004 | silmitasertib -0.036 | [5] 0.004 | [6] -0.023 | entospletinib 0.007

Taken from the entries so far (six entries):
SHFL (UniProt Q9NUL5)
inactive: [1] -0.019 | [2] 0.357 | [3] 0.309 | entinostat -0.023 | vorinostat -0.055 | silmitasertib 0.084 | [5] 0.194

SH3BP5L (UniProt Q7L8J4)
inactive: [1] -0.141 | [2] -0.11 | [3] -0.084 | [4] -0.065 | entinostat 0.057 | vorinostat -0.021 | citarinostat 0.054 | silmitasertib 0.053 | [5] -0.034 | [6] -0.077 | entospletinib -0.025

SERPINF2 (UniProt P08697)
inactive: [1] -0.205 | [2] 0.029 | [3] 0.059 | [4] 0.061 | entinostat 0.017 | vorinostat 0.323 | citarinostat 0.128 | silmitasertib 0.165 | [5] 0.065 | [6] 0.429 | entospletinib 0.173

SERPINI1 (UniProt Q99574)
inactive: [1] 0.044 | [2] -0.026 | [3] 0 | [4] 0.17 | entinostat -0.047 | vorinostat -0.131 | citarinostat 0.022 | silmitasertib 0.036 | [5] -0.09 | [6] -0.146 | entospletinib -0.196

SERF2 (UniProt P84101)
inactive: [1] -0.051 | [3] 0.067 | [4] -0.025 | entinostat -0.026 | vorinostat 0.251 | citarinostat -0.135 | silmitasertib 0.03 | [5] -0.026 | [6] 0.021 | entospletinib 0.07

SIL1 (UniProt Q9H173)
inactive: [1] 0.021 | [2] 0.007 | [3] -0.02 | [4] 0.007 | entinostat -0.006 | vorinostat -0.022 | citarinostat 0.024 | silmitasertib 0.089 | [5] -0.042 | [6] -0.053 | entospletinib -0.015

Further entries:

SHMT2 (UniProt P34897)
inactive: [1] 0.012 | [2] -0.024 | [3] 0.001 | [4] -0.013 | entinostat -0.031 | vorinostat -0.045 | citarinostat -0.006 | silmitasertib -0.019 | [5] -0.013 | [6] -0.006 | entospletinib -0.006

SEMG2 (UniProt Q02383)
inactive: [1] -0.013 | [2] 0.046 | [3] 0.651 | entinostat 0.033 | vorinostat -0.073 | citarinostat 0.066 | silmitasertib 0.001 | [5] 0.051 | [6] -0.067

SFT2D1 (UniProt Q8WV19)
inactive: [1] -0.036 | [2] -0.078 | [3] -0.077 | entinostat -0.001 | citarinostat 0.058 | silmitasertib 0.02 | [6] -0.033 | entospletinib 0.007

SEC63 (UniProt Q9UGP8)
inactive: [1] -0.01 | [2] -0.002 | [3] 0.005 | [4] -0.029 | entinostat 0.025 | vorinostat -0.008 | citarinostat 0.041 | silmitasertib -0.02 | [5] -0.009 | [6] -0.024 | entospletinib -0.047

SEPTIN2 isoform 2 (UniProt Q15019)
inactive: [1] -0.053 | [2] -0.011 | [3] 0.005 | [4] -0.034 | entinostat -0.032 | vorinostat -0.033 | citarinostat 0.005 | silmitasertib -0.001 | [5] -0.043 | [6] -0.043 | entospletinib -0.017
